Values of other authors in US10426778B2, “Prophylactic agent and/or therapeutic agent for diffuse large B-cell lymphoma” (ONO PHARMACEUTICAL CO., LTD., priority 2014, dated 2019).
At least one structure is not confirmed: it was looked up by name or label, or the drawing left a doubt.

Tested on: ABC-DLBCL patients
Conditions: cited from earlier work

C=CC(=O)N1CCC[C@@H](n2nc(-c3ccc(Oc4ccccc4)cc3)c3c(N)ncnc32)C1 [comparative compound, Ibrutinib]
Overall Response Rate (ORR) (ABC-DLBCL patients, 10 cases in 25 cases, 560 mg oral once per day): 40% | ORR in patients having CD79B mutation (ABC-DLBCL, 3 cases in 5 cases, 560 mg): 60% | ORR in patients having CD79B wild-type (ABC-DLBCL, 7 cases in 19 cases, 560 mg): 37%
